In patent US20240100068A1, “METHODS COMPRISING ADMINISTRATION OF A GLUCOCORTICOID RECEPTOR AGONIST AND AN INHIBITOR OF CALCINEURIN” (Chengdu Anticancer Bioscience, Ltd., priority 2022, published 2024):
For at least one compound, name, drawing or mass did not settle the structure.

Tested on: MycNick cells
Test: Combination treatment with Hydrocortisone: modulation of HC-induced vacuolation, cell density reduction and CIR effect
Format: cell-based, murine
Details: added to HC
Method: Exponentially growing MycNick cells were passaged into 24-well plates at a final confluence of 90% and were allowed to attach for 48 hours before being exposed to a cortisol analog in the presence or absence of a calcineurin inhibitor. […] An inverted tissue culture microscope (Leica) was used to document vacuoles in live cells. Cell density was evaluated under an EVOS FL Auto microscope (Thermo Fisher) after fixation of the treated cells with 4% paraformaldehyde (PFA) in the presence of detergent 0.5% Triton X-100 and subsequently staining of DNA with 5 μg/ml of Propidium Iodide (PI) in the presence of 5 μg/ml of Ribonuclease A from bovine pancreas (RNase A) (Sigma, Cat. # R6513-50MG).
The threshold concentration that was used to elicit no less than 50% of reduction in the cell density was determined. So was the minimal effective concentration that could induce vacuolation to an extent that covered no less than 10% of a random field documented under a bright field microscope. Quantification of the area with vacuolation, multilayer zones or multilayer zones was performed with the Image J software. More than 10 random fields were chosen for quantification for each data point in each of two independent experiments.
A chemical library for enhancers of the CIR effect of HC in MycNick cells was screened.

CO[C@H]1C[C@@H]2CC[C@@H](C)[C@@](O)(O2)C(=O)C(=O)N2CCCC[C@H]2C(=O)O[C@H]([C@H](C)C[C@@H]2CC[C@@H](O)[C@H](OC)C2)CC(=O)[C@H](C)/C=C(\C)[C@@H](O)[C@@H](OC)C(=O)[C@H](C)C[C@H](C)/C=C/C=C/C=C/1C [Rap, Rapamycin]
HC-triggered vacuolation in presence of the compound: blocked
enhancement of the effect of HC in eliciting vacuolation: failed to enhance
